We go through two molecules from US20220098314A1.

Amino acid sequences for entries named in this document (tags omitted). Residues count along the entry.
UniProt Q9Y5U5, residues 26-241: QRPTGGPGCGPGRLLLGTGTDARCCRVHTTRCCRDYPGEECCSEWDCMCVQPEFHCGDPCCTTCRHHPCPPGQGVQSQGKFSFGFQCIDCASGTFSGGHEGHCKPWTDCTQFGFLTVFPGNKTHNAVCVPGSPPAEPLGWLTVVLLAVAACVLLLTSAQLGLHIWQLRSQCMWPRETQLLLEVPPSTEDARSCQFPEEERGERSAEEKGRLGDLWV

These are yes or no findings as the source states them, for the method shown. Some entries that bind do so weakly or less than the wild type.

This assay deals with GITR expressed on cells (GITR(+) CHO cells; NF-kB-luc2P/GITR Jurkat cells) (UniProt Q9Y5U5). Description: flow cytometry competition with a constant concentration of GITR ligand. (In general: In flow cytometry, cells or beads pass a laser one at a time.)

B1: anti-GITR E1-3H7 IgG4 (antibody, V domains shown)
VH: QVQLVQSGGGLVQPGGSLRLSCAASGFTFSSHAMSWVRQAPGKGLEWVSAISGSGGSTYYADSVKGRFTISRDNSKNTLYLQMNSLRAEDTAVYYCAKIGTADAFDIWGQGTTVTVSS
VL: QSALTQPPSVSGTPGQRVTISCSGGVPNIGSNPVNWYLHRPGTAPKLLIYNSNQWPSGVPDRFSGSRSGTSASLAISGLQSEDEADYYCAAWDDSLDGLVFGGGTKLTVL
As to B1, the binding result is listed as “binds”.

B2: anti-GITR TT1-3C6 IgG4 (antibody, V domains shown)
VH: EVQLVQSGGGLVQPGGSLRLSCAASGFTFSSYAMSWVRQAPGKGLEWVSAISGSGGSTYYADSVKGRFTISRDNSKNTLYLQMNSLRADDTAVYYCARRGFMDVWGKGTLVTVSS
VL: SSELTQDPAVSVALGQTVTITCQGDILEAYYASWYQQRPGQAPVLVIYGENNRPSGIPDRFSGSRSGNTASLTITGAQAEDEADYYCNSRDSSGSHVVFGGGTKMTVL
As to B2, the binding result is given as “binds”.
